The assay deals with HA-tagged full-length EWSR1 (HA-EWSR1) (human) (UniProt Q01844). The assay is described as follows: affinity purification with mass spectrometry; HEK293T cells in SILAC medium transfected with HA-EWSR1 and treated with HHT (40 nM); NP40 lysate on HA-tag magnetic beads, 4°C, 4 h; bound proteins by mass spectrometry.

Protein sequences, listed by entry. Tags and fused reporters are not part of them.
UniProt Q01844: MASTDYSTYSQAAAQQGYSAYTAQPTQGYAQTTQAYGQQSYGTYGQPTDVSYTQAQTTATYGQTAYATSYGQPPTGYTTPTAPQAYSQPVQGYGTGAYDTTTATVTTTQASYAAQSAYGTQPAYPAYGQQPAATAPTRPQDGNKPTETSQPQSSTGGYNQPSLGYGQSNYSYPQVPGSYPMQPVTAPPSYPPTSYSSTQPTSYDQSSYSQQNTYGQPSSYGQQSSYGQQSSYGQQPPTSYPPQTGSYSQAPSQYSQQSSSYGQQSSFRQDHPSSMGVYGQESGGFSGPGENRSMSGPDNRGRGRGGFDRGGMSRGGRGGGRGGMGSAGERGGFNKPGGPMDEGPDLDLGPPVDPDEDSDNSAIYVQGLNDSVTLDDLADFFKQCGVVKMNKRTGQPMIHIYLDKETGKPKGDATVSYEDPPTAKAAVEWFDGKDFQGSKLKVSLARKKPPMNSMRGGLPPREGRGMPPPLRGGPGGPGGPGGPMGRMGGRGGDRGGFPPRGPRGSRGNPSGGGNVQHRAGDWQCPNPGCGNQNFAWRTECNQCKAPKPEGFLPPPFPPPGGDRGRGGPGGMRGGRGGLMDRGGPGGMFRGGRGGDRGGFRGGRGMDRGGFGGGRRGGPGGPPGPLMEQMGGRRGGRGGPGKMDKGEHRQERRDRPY

These are yes or no findings as the source states them, for the method shown. In cells and extracts the contact can be indirect. These calls come from enrichment with a bait or labelling near it, and not all partners need be listed.

B1: HNRNPM (in HEK293T cells) (protein, UniProt P52272 1-730)
chain: MAAGVEAAAEVAATEIKMEEESGAPGVPSGNGAPGPKGEGERPAQNEKRKEKNIKRGGNRFEPYANPTKRYRAFITNIPFDVKWQSLKDLVKEKVGEVTYVELLMDAEGKSRGCAVVEFKMEESMKKAAEVLNKHSLSGRPLKVKEDPDGEHARRAMQKVMATTGGMGMGPGGPGMITIPPSILNNPNIPNEIIHALQAGRLGSTVFVANLDYKVGWKKLKEVFSMAGVVVRADILEDKDGKSRGIGTVTFEQSIEAVQAISMFNGQLLFDRPMHVKMDERALPKGDFFPPERPQQLPHGLGGIGMGLGPGGQPIDANHLNKGIGMGNIGPAGMGMEGIGFGINKMGGMEGPFGGGMENMGRFGSGMNMGRINEILSNALKRGEIIAKQGGGGGGGSVPGIERMGPGIDRLGGAGMERMGAGLGHGMDRVGSEIERMGLVMDRMGSVERMGSGIERMGPLGLDHMASSIERMGQTMERIGSGVERMGAGMGFGLERMAAPIDRVGQTIERMGSGVERMGPAIERMGLSMERMVPAGMGAGLERMGPVMDRMATGLERMGANNLERMGLERMGANSLERMGLERMGANSLERMGPAMGPALGAGIERMGLAMGGGGGASFDRAIEMERGNFGGSFAGSFGGAGGHAPGVARKACQIFVRNLPFDFTWKMLKDKFNECGHVLYADIKMENGKSKGCGVVKFESPEVAERACRMMNGMKLSGREIDVRIDRNA
As to B1, the binding entry is recorded as “binds”.

The record behind these values is paper PMC12747546, “Homoharringtonine suppresses acute myeloid leukemia progression by orchestrating EWSR1 phase separation in an m^6A‐YTHDF2‐dependent mechanism” (iMeta, 2025).
